This is one part of the list. Shown are side measurements of this screen, not its main read-out; they come without a call. Compounds called inactive in the main read-out are mostly missing here. The note in brackets gives the kind of curve behind each potency; many fits are weak.
Assay: IkB Signaling
Conditions: ABC-DLBCL IkBa-CBG/CBR dual luciferase ratio (green luciferase fused to IkBa over red control in OCI-Ly3 lymphoma cells), 4 h; measured here: control luc red channel unless noted
How it was run: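 In this assay, an IκBα–CBG68 fusion accumulates when IKK-driven degradation is blocked; native CBR normalizes for cell number. OCI-Ly3 cells were treated 4 h with compound and doxycycline, then green and red light read after Chroma-Glo addition.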

| SMILES | AC50 |
| --- | --- |
| COc1cccc(C(=O)N(Cc2ccc(N(C)C)cc2)Cc2ccco2)c1 | 31.6 µM [falling, single point] |
| CCc1ccc(S(=O)(=O)NCc2cccn2Cc2cccc(C)c2)cc1 | 15.8 µM [falling, partial curve] |
| COc1cc(OC)c(NC(=O)CCc2nc(-c3cccs3)no2)cc1Cl | 12.6 µM [falling, partial curve] |
| COc1cc(C(=O)Nc2sc3c(c2C(N)=O)CCC(C)C3)cc(OC)c1OC (stereo unspecified) | 10 µM [falling, partial curve] |
| COc1ccc(CCNC(=O)CSc2cc(=O)n(C)c3ccccc23)cc1OC | 3.16 µM [rising, partial curve, poor fit] |
| O=c1c(O)c(-c2ccc(O)cc2)oc2ccc(O)cc12 | 7.94 µM [falling, single point] |
| O=C(NCc1cccc(Cl)c1)c1cnc(N2CCCCC2)c2ccccc12 | 39.8 µM [falling, single point] |
| Cc1cccc(N2CCN(c3ncnc4onc(C)c34)CC2)c1C | 7.94 µM [falling, single point] |
| CCc1ccc(C2N=C(N)Nc3nc4ccccc4n32)cc1 (stereo unspecified) | 15.8 µM [falling, single point] |
| Cc1ccc(-n2ncc(C(=O)NCCc3ccsc3)c2C2CCN(C(=O)OC(C)(C)C)CC2)c(C)c1 | 31.6 µM [falling, partial curve] |
| C=C(C)COc1ccc(-c2n[nH]c(C)c2-c2ccccc2OC)c(O)c1 | 25.1 µM [falling, partial curve] |
| COc1ccc(Cl)cc1NC(=O)CN(c1cccc(C)c1C)S(C)(=O)=O | 39.8 µM [falling, single point] |
| COc1cccc2c1[C@@H]1CN(CCCCn3c(=O)[nH]c4c(sc5ncc(-c6ccccc6)nc54)c3=O)C[C@H]1CO2 | 25.1 µM [falling, partial curve, poor fit] [measured here: IkB-luc green channel] |
| COc1cccc(C(=O)Nc2nc3c(s2)CCCC3)c1 | 10 µM [falling, partial curve] |
| CN(Cc1ccccc1)C(=O)C(=O)Nc1ccc2nc3n(c(=O)c2c1)CCCCC3 | 12.6 µM [falling, partial curve] |
| CNc1ccc(-c2nc(-c3ccccn3)no2)cc1[N+](=O)[O-] | 25.1 µM [falling, single point] |
| CCOc1cc(CNCCSc2nnnn2C)ccc1OCc1ccc(Cl)cc1Cl | 20 µM [falling, partial curve] |
| Cc1ccc(NC(=O)CN2C(=O)COc3ccc(S(=O)(=O)N4CCCCC4)cc32)cc1Cl | 10 µM [falling, single point] |
| c1ccc(OCc2nnc3sc(-c4cccs4)nn23)cc1 | 5.01 µM [falling, full curve] |
| CCOC(=O)c1ccc(NC(=O)c2ccc3c(c2)OCO3)cc1 | 1 µM [falling, partial curve] |
| COC(=O)c1ccc(NC(=O)CC2C(=O)N(c3cccc(F)c3)C(=O)N2CC(C)C)cc1 (stereo unspecified) | 31.6 µM [falling, single point] |

2 of these compounds in another layout.
O=c1c(O)c(-c2ccc(O)cc2)oc2ccc(O)cc12
  AC50: 7.94 µM [falling, single point]
Cc1ccc(-n2ncc(C(=O)NCCc3ccsc3)c2C2CCN(C(=O)OC(C)(C)C)CC2)c(C)c1
  AC50: 31.6 µM [falling, partial curve]

(list continues)

| SMILES | AC50 |
| --- | --- |
| Cc1ccc(-n2nc(C(=O)N3CCCCC3)c(=O)n(C)c2=O)cc1 | 10 µM [falling, partial curve, poor fit] |
| CC1(C)C(=O)NC2=C1C(=O)C(=O)c1ccccc12 | 10 µM [falling, partial curve] |
| Cc1nonc1NC(=O)CSc1nc(C2CCCCC2)nc2ccccc12 | 15.8 µM [falling, partial curve] |
| CN(CC(=O)Nc1ccc(F)c(F)c1F)c1cnccn1 | 25.1 µM [falling, partial curve] |
| CCOc1ccc(Nc2c(S(=O)(=O)c3ccc(Cl)cc3)cnc3ccc(OC)cc23)cc1 | 15.8 µM [falling, single point] |
| CCOC(=O)CC(NC(=O)CCc1c(C)nc2c(-c3ccccc3)c(C)nn2c1C)c1ccc(C)cc1 (stereo unspecified) | 31.6 µM [falling, single point] |
| COc1ccc(-c2c3c(=O)n(C)c(=O)n(C)c3cn2-c2cccc(N)c2)cc1 | 39.8 µM [falling, single point] |
| Cc1noc(/C=C/N(C)C)c1S(=O)(=O)N1CCN(c2ccccc2)CC1 | 6.31 µM [falling, partial curve] |
| COc1ccc(Cn2ccc3nc(C)c(C(=O)Nc4ccc(F)cc4)cc3c2=O)cc1 | 15.8 µM [falling, partial curve] |
| CCn1cc(C(=O)NCCc2ccc(Cl)cc2)c(=O)c2cc(S(=O)(=O)N3CCc4ccccc4C3)ccc21 | 10 µM [falling, partial curve] |
| COc1ccccc1NC(=O)c1oc2ccccc2c1NC(=O)C(C)C | 12.6 µM [falling, partial curve] |
| Cc1cccc(NC(=O)CSc2nnc3scc(-c4ccccc4)n23)c1 | 25.1 µM [falling, partial curve] |
| O=C1c2ccccc2C(=O)N1Cc1nc(-c2ccccn2)no1 | 12.6 µM [falling, partial curve] |
| O=c1c(N2CCN(c3cccc(C(F)(F)F)c3)CC2)csc2ccccc12 | 10 µM [falling, partial curve] |
| COc1ccc(-c2nc3ccc(NS(C)(=O)=O)cc3o2)cc1 | 25.1 µM [rising, partial curve] |
| Cc1cc(C)cc(Nc2ccc(C(=O)O)cc2N)c1 | 0.251 µM [falling, full curve] |
| CCCCN1C(=O)C2ON(c3ccccc3C)C(c3ccco3)C2C1=O (stereo unspecified) | 7.94 µM [falling, partial curve] |
| CCN(C(=O)c1cnc(N2CCN(c3ncccn3)CC2)c2ccccc12)c1cccc(Cl)c1 | 3.98 µM [falling, full curve] |
| Cn1c(SCC(N)=O)nc2c([nH]c3ccccc32)c1=O | 25.1 µM [falling, partial curve] |
| O=C(O)c1ccc(Nc2nc(-c3ccccc3)c3cc(Br)ccc3n2)cc1 | 0.0251 µM [falling, full curve] |
